Here are results for 64 compounds from PubChem BioAssay AID493014 (National Center for Advancing Translational Sciences (NCATS), 2011).

The assay is described as follows: qHTS Assay to Find Inhibitors of Chronic Active B-Cell Receptor Signaling. The following applies: ABC-DLBCL IkBa-CBG/CBR reporter, luminescence ratio (green luciferase fused to IkBa over red control in TMD8 lymphoma cells), 4 h. The procedure, abridged: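 Concentration-response series (up to 46 uM) were applied to TMD8 dual-reporter cells for 4 h at 37C with doxycycline. Green/red ratio, after filter-overlap correction, defined %Activity; red signal alone was normalised to basal cells and zero luminescence.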
(In general: qHTS replaces the single test concentration by a dilution series.)

Setting [1] is: measured here: CBR red luminescence, cell number.
[2] abbreviates: measured here: IkBa-CBG green luminescence.

Molecules are shown by their SMILES. The list shows a part of the results. Shown are side measurements of this screen, not its main read-out; they come without a call. Compounds called inactive in the main read-out are mostly missing here. Words in brackets tell the shape of the fitted curve; partial curves, single points and poor fits give uncertain potencies.

What is called AC50 is the concentration at which the activity in the assay is half-maximal. With `Cc1c[nH]c2cccc(OCC(O)CNC(C)(C)C)c12` (configuration not stated), the AC50 under setting [1] is 29.1 µM [rising, single point].

On to `CCOc1cc(CNn2cnnc2)cc(Cl)c1OCC(=O)NC(C)(C)C`, for which, under setting [1], the concentration at half-maximal activity (AC50) was 6.31 µM [falling, single point].

On to `CC(Cc1cccs1)NC(=O)Nc1ccc(Cl)cc1` (configuration not stated), for which, under setting [1], the AC50 is 1.03 µM [rising, partial curve, poor fit]. Regarding `O=C(N/N=C/c1ccc(Cl)c([N+](=O)[O-])c1)c1cc(-c2ccc3c4c(cccc24)CC3)n[nH]1`, the half-maximal activity concentration (AC50) under setting [1] is 31.6 µM [rising, single point]. On the same count and under the same terms, with `CC(C)NC(C(=O)Nc1cc(Cl)cc(Cl)c1)c1ccccc1` (configuration not stated) the figure was 20.6 µM [falling, single point].

With `CCCn1c(N)c(C(=O)CSc2ncc(C(F)(F)F)cc2Cl)c(=O)[nH]c1=O`, the AC50 under setting [1] is 35.5 µM [rising, single point].

Consider `C=C(C)C1CC=C(C)/C(=N\NC(=O)CCc2ccccc2)C1` (configuration not stated), for which, under setting [1], the half-maximal activity concentration (AC50) was 3.66 µM [rising, partial curve, poor fit]. Still for that read-out and setting: with `COC(=O)c1cc(OC)c(OC)cc1NC(=S)Nc1cccc(C(C)=O)c1` the figure was 6.51 µM [rising, full curve]; with `CC(=O)c1ccc(S(=O)(=O)N2CCCCC2C(=O)O)cc1` (configuration not stated), 12.6 µM [falling, partial curve, poor fit]. Turning to `Cc1ccc(N=Nc2c(O)n(CN3CCOCC3)c3ccccc23)cc1`, the AC50 under setting [1] was 15.8 µM [falling, single point]. On the same count and under the same terms, with `COc1ccc(C2NC(=O)NC(C)=C2C(=O)OCC2CCCCC2)cc1OC` (configuration not stated) the figure was 20 µM [falling, single point]; with `O=C(Nc1cnc2sc3c(n2c1=O)CCCC3)c1ccc(F)cc1`, 10 µM [rising, partial curve, poor fit]. Same read-out and setting: the value for `COc1ccc(-c2c(=O)n(OC)c3ccccc3[n+]2[O-])cc1OC` was 3.98 µM [rising, partial curve, poor fit]; that for `Cc1cccc(C)c1NC(=O)C1NC(=O)CC1c1ccccc1` (configuration not stated) was 4.11 µM [rising, full curve, poor fit]. `COc1ccc(-n2nc(C(=O)NCC(=O)Nc3ccc(F)cc3)c3ccccc3c2=O)cc1`: the concentration at half-maximal activity (AC50) under setting [1] was 11.2 µM [falling, partial curve]. On the same count and under the same terms, the value for `C#Cc1ccc(CN2CCN(Cc3ccsc3)C(CCO)C2)cc1` (configuration not stated) was 1.41 µM [rising, full curve, poor fit]; that for `COc1ccc(Oc2ncccc2[N+](=O)[O-])cc1` was 35.5 µM [rising, single point]. As to `C=CC[C@@H](CC(=O)N[C@@H](CO)Cc1ccccc1)C(=O)N[C@@H](COC(=O)[C@H](CC=C)CC(=O)OC(C)(C)C)Cc1c[nH]c2ccccc12`, the AC50 under setting [1] is 29.1 µM [falling, single point]. On to `CCOC(=O)C1=NN(C(=O)c2ccccc2)C(O)(c2ccc(C)cc2)C1` (configuration not stated), for which the concentration at half-maximal activity (AC50) under setting [1] was 9.2 µM [falling, single point]. On the same count and under the same terms, the value for `O=C(/C=C/NNC(=O)c1ccc(Cl)cc1)c1ccccc1` was 7.08 µM [falling, partial curve]. Still for that read-out and setting: with `Cc1ccc(N2CN=c3s/c(=C\c4cccnc4)c(=O)n3C2)cc1` the figure was 17.8 µM [falling, single point]. Turning to `CCC(=O)Nc1ccc(C(=O)Nc2cccc(C)n2)cc1`, the half-maximal activity concentration (AC50) under setting [1] was 14.1 µM [falling, single point]. Turning to `O=C(Nc1ccccc1N1CCOCC1)c1ccccc1NS(=O)(=O)c1ccc(F)cc1`, the concentration at half-maximal activity (AC50) under setting [1] was 7.31 µM [rising, partial curve]. Same read-out and setting: with `Cc1ccc(S(=O)(=O)N[C@@H](Cc2ccccc2)C(=O)CCl)cc1` the figure was 2.24 µM [falling, full curve]. On the same count and under the same terms, with `O=C1c2ccccc2NC(c2ccc(-c3cccc(Cl)c3)o2)N1O` (configuration not stated) the figure was 29.1 µM [falling, single point]; with `CC(C)c1nc(SCC(=O)Nc2nccs2)c2ccccc2n1`, 1 µM [falling, full curve].

With `N#C/C=C(/N)N1CCN(c2ccc(Cl)c(Cl)c2)CC1`, under setting [1], the half-maximal activity concentration (AC50) is 7.31 µM [rising, single point].

Consider `Cc1nc(N)sc1C(=O)N/N=C/c1ccco1`, for which the half-maximal activity concentration (AC50) runs as follows: under setting [1], 8.91 µM [falling, partial curve]; under setting [2], 14.1 µM [rising, partial curve, poor fit]. As to `COc1ccccc1N=C1SC(C(=O)Nc2cccc(Cl)c2Cl)C(N)=C1C(N)=O` (configuration not stated), under setting [1], the AC50 is 35.5 µM [falling, single point]. On the same count and under the same terms, with `Cc1ccc(/C=N/NC(=S)NCCc2ccccc2)s1` the figure was 0.562 µM [rising, full curve]; with `O=C(CN1CCCCCC1)Nc1ccc(Cl)cn1`, 35.5 µM [falling, single point].

Regarding `CCOC(=O)c1c(S(=O)(=O)N2CCCC(C(=O)Nc3ncccc3C)C2)c(C)n(C)c1C` (configuration not stated), the half-maximal activity concentration (AC50) under setting [1] is 35.5 µM [falling, single point].

Consider `CCCCCc1nnc(N)s1`, for which the AC50 under setting [1] is 29.1 µM [rising, single point]. As for `COC1=C(OC)c2ccccc2C(C(=O)O)N/C1=C(/C)Nc1ccncc1` (configuration not stated), under setting [1], the half-maximal activity concentration (AC50) is 8.91 µM [falling, partial curve]. Turning to `CCCn1c(SCC(=O)Nc2ccccc2Cl)n[nH]c1=O`, the AC50 under setting [1] is 0.891 µM [rising, full curve, poor fit]. On to `O=C(Nc1cccnc1)C1CC(=O)N(c2ccc(F)cc2)C1` (configuration not stated), for which, under setting [1], the half-maximal activity concentration (AC50) is 0.112 µM [falling, full curve, poor fit]. Same read-out and setting: with `Cc1nn(-c2ccc(F)cc2)c(Cl)c1/C=C(\CC(=O)O)c1nc2ccccc2s1` the figure was 20 µM [rising, single point]; with `O=C(COC(=O)C1CCN(c2ccc(C(F)(F)F)cn2)CC1)Nc1cc(F)ccc1F`, 29.1 µM [rising, single point]. On the same count and under the same terms, the value for `CCOC(=O)C1CCN(S(=O)(=O)NC[C@H]2O[C@@H](n3cnc4c(N)ncnc43)[C@H](O)[C@@H]2O)C1` (some centres not stated) was 14.6 µM [rising, partial curve]; that for `Cc1ccc(-n2ncc3c(N(CCO)Cc4ccccc4)ncnc32)cc1` was 0.282 µM [rising, full curve, poor fit]; that for `O=C(N/N=C1\CCCc2ccccc21)c1ccccc1Cl` was 35.5 µM [falling, single point].

For `CCCOc1cccc(C(=O)Nc2nnn(CCC)n2)c1`, under setting [1], the AC50 was 7.08 µM [falling, partial curve].

For the compound `CCOC(=O)c1c(/N=C/c2ccc(C)cc2O)sc2c1CCN(C)C2`, the AC50 under setting [1] is 17.8 µM [rising, partial curve, poor fit]. Same read-out and setting: the value for `Cc1ccc(C(=O)c2cn(-c3ccc(F)c(Cl)c3)nn2)cc1` was 2.24 µM [rising, full curve, poor fit]; that for `COc1ccc(NC(=O)N(C)C[C@H]2Oc3c(NC(=O)c4ccncc4)cccc3C(=O)N([C@H](C)CO)C[C@@H]2C)cc1` was 23.1 µM [rising, single point]. The same measure, in the same setting: the value for `COC(=O)[C@@H]1Cc2c([nH]c3ccccc23)C(C)(C)N1C(=O)CCl` was 7.08 µM [falling, partial curve, poor fit]; that for `O=C(NC1CCCN(Cc2ccc(Cl)cc2)C1)c1ccnc(Cl)c1` (configuration not stated) was 25.1 µM [falling, single point]. On the same count and under the same terms, the value for `Cc1ccc(C)c(S(=O)(=O)/N=C2\C=C(NS(=O)(=O)c3ccccc3)C(=O)c3ccccc32)c1` was 17.8 µM [falling, single point].

For the compound `CCOC(=O)c1csc(NC(=O)c2cc3ccccc3o2)n1`, the concentration at half-maximal activity (AC50) under setting [1] was 12.6 µM [falling, partial curve].

As for `COc1ccc(Cc2nc3ccc(C(=O)N4CCC(N(C)C)C4)cc3o2)cc1` (configuration not stated), under setting [1], the AC50 was 35.5 µM [rising, single point]. With `O=C(O)c1ccccc1SC1CC(=O)N(C2CCCCC2)C1=O` (configuration not stated), the AC50 under setting [1] is 29.1 µM [falling, single point]. Turning to `CCC(C)NC(=O)c1c(N)n(/N=C/c2ccccn2)c2nc3ccccc3nc12` (configuration not stated), the concentration at half-maximal activity (AC50) under setting [1] is 1.26 µM [falling, full curve, poor fit].

For the compound `O=C(Nc1cccc([N+](=O)[O-])c1)c1ccn[nH]1`, under setting [1], the AC50 is 7.94 µM [falling, partial curve, poor fit]. Turning to `CCN1CCN(c2ccc(S(=O)(=O)N3CCCCC3)cc2NC(=O)c2cccc(C(F)(F)F)c2)CC1`, the AC50 under setting [1] was 18.4 µM [falling, partial curve, poor fit]. Consider `CCn1ncc(CNC(=O)C2(C)CC2(Br)Br)c1C` (configuration not stated), for which, under setting [1], the AC50 was 2.31 µM [rising, single point].

`Cc1ccc(CC(=O)Nc2ccccc2-c2ccccc2)cc1C`: the AC50 under setting [1] was 18.4 µM [rising, partial curve, poor fit].

Regarding `CCOC(=O)COc1ccc([N+](=O)[O-])cc1`, the half-maximal activity concentration (AC50) under setting [1] is 6.51 µM [rising, partial curve, poor fit].

Consider `COc1ccc(N/C=C/C(=O)c2ccc(Cl)cc2)cc1`, for which, under setting [1], the concentration at half-maximal activity (AC50) was 0.13 µM [rising, full curve]. `CCCc1cc(=O)n2[nH]c(C)c(-c3ccc(Cl)cc3)c2n1`: the half-maximal activity concentration (AC50) was 25.1 µM [rising, partial curve] under setting [1] and 25.1 µM [falling, partial curve, poor fit] under setting [2]. For the compound `CCOC(=O)c1cccc(NC(=O)CC2Oc3ccccc3NC2=O)c1` (configuration not stated), the concentration at half-maximal activity (AC50) under setting [2] was 20 µM [falling, single point].

Turning to `CCC(C)C(=O)Nc1nc(C)c(-c2csc(Nc3cc(OC)ccc3OC)n2)s1` (configuration not stated), the half-maximal activity concentration (AC50) under setting [1] was 0.501 µM [falling, partial curve, poor fit]. Still for that read-out and setting: the value for `COc1cc(/C=C2/NC(=O)N(Cc3ccccc3F)C2=O)ccc1O` was 8.91 µM [falling, partial curve]; that for `Cc1ccc(Oc2ncnc(N)c2[N+](=O)[O-])cc1` was 20 µM [falling, single point]. Consider `CC(NC(=O)COC(=O)c1cc(NS(=O)(=O)c2ccc(Cl)c([N+](=O)[O-])c2)ccc1O)C1CC2CCC1C2` (configuration not stated), for which the AC50 is, setting by setting: under setting [1], 16.4 µM [falling, single point]; under setting [2], 23.1 µM [rising, partial curve, poor fit].
